Experimental data: paper PMC8946217
Results are given in words; binding and its absence hold for the method and conditions named. For part of these data: In cells and extracts the contact can be indirect. Some entries that bind do so weakly or less than the wild type.

By UniProt entry, the sequences of proteins in these tests, tags left out.
UniProt Q04759: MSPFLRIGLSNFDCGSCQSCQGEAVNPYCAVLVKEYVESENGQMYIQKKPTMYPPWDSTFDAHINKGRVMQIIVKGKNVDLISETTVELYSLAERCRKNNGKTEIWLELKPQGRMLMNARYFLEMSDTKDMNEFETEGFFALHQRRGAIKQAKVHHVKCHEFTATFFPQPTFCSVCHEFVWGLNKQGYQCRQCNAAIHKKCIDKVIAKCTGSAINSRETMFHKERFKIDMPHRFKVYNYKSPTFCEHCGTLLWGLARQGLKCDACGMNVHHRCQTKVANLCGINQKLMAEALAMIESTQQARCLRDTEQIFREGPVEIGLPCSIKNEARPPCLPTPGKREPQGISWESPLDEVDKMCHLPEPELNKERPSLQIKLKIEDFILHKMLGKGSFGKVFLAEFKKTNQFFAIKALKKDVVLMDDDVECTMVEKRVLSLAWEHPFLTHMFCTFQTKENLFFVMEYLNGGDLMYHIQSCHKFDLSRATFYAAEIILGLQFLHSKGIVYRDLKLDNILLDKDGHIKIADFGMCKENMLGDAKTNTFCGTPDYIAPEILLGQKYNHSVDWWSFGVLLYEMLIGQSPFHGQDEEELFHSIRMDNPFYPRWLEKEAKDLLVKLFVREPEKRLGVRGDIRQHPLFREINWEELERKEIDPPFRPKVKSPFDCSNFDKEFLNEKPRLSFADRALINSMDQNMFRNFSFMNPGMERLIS

Assays:
[1] = molecular target: T1, ZEB1, endogenous in CD8+ T cells (human (endogenous in patients' CD8+ T cells)) (UniProt P37275); experiment: proximity ligation; Duolink PLA (anti-mouse PLUS, anti-rabbit MINUS probes) with primary antibodies to PKC-θ-Thr538p and ZEB1; fixed, permeabilised PD-1+/CD8+ T cells from immunotherapy-resistant melanoma patients
T1 sequence: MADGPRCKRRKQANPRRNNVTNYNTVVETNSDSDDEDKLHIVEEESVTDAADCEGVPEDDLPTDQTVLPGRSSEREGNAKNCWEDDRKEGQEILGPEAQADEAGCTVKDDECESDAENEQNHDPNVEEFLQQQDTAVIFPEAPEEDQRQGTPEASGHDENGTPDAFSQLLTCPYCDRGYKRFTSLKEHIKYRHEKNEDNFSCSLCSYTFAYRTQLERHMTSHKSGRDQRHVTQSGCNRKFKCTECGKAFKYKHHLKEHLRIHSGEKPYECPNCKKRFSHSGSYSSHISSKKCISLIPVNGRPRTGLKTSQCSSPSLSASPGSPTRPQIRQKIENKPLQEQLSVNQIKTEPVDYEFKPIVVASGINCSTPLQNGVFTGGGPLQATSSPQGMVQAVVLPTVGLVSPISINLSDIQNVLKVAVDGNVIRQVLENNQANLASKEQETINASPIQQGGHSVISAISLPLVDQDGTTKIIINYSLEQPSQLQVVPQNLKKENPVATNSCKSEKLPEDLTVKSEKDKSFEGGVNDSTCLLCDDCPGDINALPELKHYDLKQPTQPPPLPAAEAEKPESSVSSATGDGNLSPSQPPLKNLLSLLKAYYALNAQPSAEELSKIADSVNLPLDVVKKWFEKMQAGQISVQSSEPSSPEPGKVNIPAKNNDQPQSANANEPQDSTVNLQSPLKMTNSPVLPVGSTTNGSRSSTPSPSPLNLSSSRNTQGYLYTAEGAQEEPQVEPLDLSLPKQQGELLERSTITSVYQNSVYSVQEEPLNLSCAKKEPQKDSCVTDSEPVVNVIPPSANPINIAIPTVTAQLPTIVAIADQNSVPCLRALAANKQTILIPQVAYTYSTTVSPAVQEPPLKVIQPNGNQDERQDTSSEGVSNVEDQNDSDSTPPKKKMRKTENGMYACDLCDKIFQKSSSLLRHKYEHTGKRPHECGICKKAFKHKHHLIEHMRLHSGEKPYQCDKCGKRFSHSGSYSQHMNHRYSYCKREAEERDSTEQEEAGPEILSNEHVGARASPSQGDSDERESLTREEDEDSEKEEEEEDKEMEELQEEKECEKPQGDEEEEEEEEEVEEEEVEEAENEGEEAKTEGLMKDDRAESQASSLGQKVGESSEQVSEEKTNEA

[2] = molecular target: T1, ZEB1, endogenous in CD8+ T cells (human (endogenous in patients' CD8+ T cells)); experiment: condition: only in PD-1+/CD8+ T cells of immunotherapy-responsive patients; proximity ligation; Duolink PLA (anti-mouse PLUS, anti-rabbit MINUS probes) with primary antibodies to PKC-θ-Thr538p and ZEB1; fixed, permeabilised PD-1+/CD8+ T cells from immunotherapy-responsive melanoma patients
[3] = molecular target: His6-PKC-θ (protein kinase C theta) (human) (UniProt Q04759); experiment: AlphaScreen or HTRF; about 30 nM His6-PKC-θ and increasing concentrations of biotinylated GST-importins; in triplicate; three parameter sigmoidal curves fitted; quenched values in the hooking zone excluded; both purified

Row | Substance | binding [1] | binding [2] | binding [3]
1 | PKC-θ phosphorylated at threonine 538, endogenous in CD8+ T cells (from UniProt Q04759 1-706) (enzyme) | binds | no binding | 
2 | biotinylated GST-importin β1 (from UniProt P70168 1-876) |  |  | binds weakly
